Data on one substance can be found in article PMC5491494.

The chains behind the UniProt entries cited, without tags or fusion partners.
UniProt Q921F2: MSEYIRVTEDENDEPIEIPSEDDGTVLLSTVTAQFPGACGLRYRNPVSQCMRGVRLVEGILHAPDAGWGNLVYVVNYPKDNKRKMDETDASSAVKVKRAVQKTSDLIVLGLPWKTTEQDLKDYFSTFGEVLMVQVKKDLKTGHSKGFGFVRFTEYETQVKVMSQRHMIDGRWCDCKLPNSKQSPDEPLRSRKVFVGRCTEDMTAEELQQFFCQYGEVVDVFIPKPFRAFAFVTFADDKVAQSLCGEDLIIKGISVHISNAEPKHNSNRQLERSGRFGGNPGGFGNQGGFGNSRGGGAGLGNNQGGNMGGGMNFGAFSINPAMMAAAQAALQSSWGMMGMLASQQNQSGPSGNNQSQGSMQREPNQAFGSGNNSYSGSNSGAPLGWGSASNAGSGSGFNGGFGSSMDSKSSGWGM

The target in the test is TDP-43, endogenous mouse (mouse (endogenous in mouse brain slices)) (UniProt Q921F2). The test is described as follows: cross-linking; in situ 1 mM DSG on minced human brain tissue (cerebellum, motor cortex) or mouse organotypic brain slices (control or 0.25 mM arsenite for 2 h), 37 °C, 30 min, quenched with 20 mM Tris; nucleo-cytoplasmic fractionation; immunoblot.

Results are given in words; binding and its absence hold for the method and conditions named. In cells and extracts the contact can be indirect. Some entries that bind do so weakly or less than the wild type.

For “TDP-43, endogenous mouse (from UniProt Q921F2 1-414)”, the binding entry is “binds”.
